# Experimental data published in US20230210999A1, “TARGETED PROTEASE DEGRADATION (TED) PLATFORM” (EUBULUS BIOTHERAPEUTICS INC., priority 2020, published 2023).
# Some entries share one result that the patent states for a list of compounds.
# How the values were obtained:
# Type in all cases: cell-based
# PLK1 [1] = biological target: T1, PLK1 (Homo sapiens, UniProt P53350); experiment: Western blot, degradation of PLK1 in MV4;11 cells; parameters: Cells were treated with the compound for a period of time, after that the cells were collected by centrifugation; endogenous in cells; host or cells: MV4;11; details: read-out: Degradation activity DC50 on PLK1 of tested compounds in MV4;11 cells
# BRD4 [2] = biological target: T2, BRD4 (Homo sapiens, UniProt O60885); experiment: Western blot, degradation of BRD4 in MV4;11 cells; parameters: Cells were treated with the compound for a period of time, after that the cells were collected by centrifugation; endogenous in cells; host or cells: MV4;11; details: read-out: Degradation activity DC50 on BRD4 of tested compounds (part) in MV4:11 cells
# PLK1 [3] = biological target: T1, PLK1; experiment: Western blot, degradation of PLK1 in TMD-8 cells; parameters: Cells were treated with the compound for a period of time, after that the cells were collected by centrifugation; endogenous in cells; host or cells: TMD-8; details: read-out: Degradation activity DC50 on PLK1 of tested compounds in TMD-8 cells
# BRD4 [4] = biological target: T2, BRD4; experiment: Western blot, degradation of BRD4 in TMD-8 cells; parameters: Cells were treated with the compound for a period of time, after that the cells were collected by centrifugation; endogenous in cells; host or cells: TMD-8; details: read-out: Degradation activity DC50 on BRD4 of tested compounds in TMD-8 cells
SMILES,DC50 (PLK1 [1]),DC50 (BRD4 [2]),DC50 (PLK1 [3]),DC50 (BRD4 [4])
CC[C@@H]1C(=O)N(C)c2cnc(Nc3ccc(C(=O)NC4CCC(N5CCN(CCC#Cc6cccc7c6CN(C6CCC(=O)NC6=O)C7=O)CC5)CC4)cc3OC)nc2N1C1CCCC1 (some centres unmarked) [Compound 889],< 100 nM,< 100 nM,,
CC[C@@H]1C(=O)N(C)c2cnc(Nc3ccc(C(=O)NC4CCN(CCOCCNCC(O)C#Cc5cccc6c5CN(C5CCC(=O)NC5=O)C6=O)CC4)cc3OC)nc2N1C1CCCC1 (some centres unmarked) [Compound 869],< 100 nM,< 100 nM,,
CC[C@@H]1C(=O)N(C)c2cnc(Nc3ccc(C(=O)NC4CCN(C5CN(CCC#Cc6cccc7c6CN(C6CCC(=O)NC6=O)C7=O)C5)CC4)cc3OC)nc2N1C1CCCC1 (some centres unmarked) [Compound 928],,< 100 nM,,
CC[C@@H]1C(=O)N(C)c2cnc(Nc3ccc(C(=O)NC4CCN(CCOCCNCCC#Cc5cccc6c5CN(C5CCC(=O)NC5=O)C6=O)CC4)cc3OC)nc2N1C1CCCC1 (some centres unmarked) [Compound 874],< 100 nM,< 100 nM,,
CC[C@@H]1C(=O)N(C)c2cnc(Nc3ccc(C(=O)NCCCN(C)CCOCCCC#Cc4cccc5c4CN(C4CCC(=O)NC4=O)C5=O)cc3OC)nc2N1C1CCCC1 (some centres unmarked) [Compound 884],< 100 nM,< 100 nM,< 100 nM,< 100 nM
CC[C@@H]1C(=O)N(C)c2cnc(Nc3ccc(C(=O)NCCCOCCOCCCN(C)CCC#Cc4cccc5c4CN(C4CCC(=O)NC4=O)C5=O)cc3OC)nc2N1C1CCCC1 (some centres unmarked) [Compound 883],< 100 nM,< 100 nM,< 100 nM,< 100 nM
CC[C@@H]1C(=O)N(C)c2cnc(Nc3ccc(C(=O)NCCCOCCCNCCC#Cc4cccc5c4CN(C4CCC(=O)NC4=O)C5=O)cc3OC)nc2N1C1CCCC1 (some centres unmarked) [Compound 912],< 100 nM,< 100 nM,,
